Experiment [1] deals with cFos bZIP fused to a fluorescent protein (cFos-mNeonGreen and cFos-mCherry) (human) (UniProt P01100). Description: FRET or BRET; mNeonGreen and mCherry fusions at 400 nM each in a 96-well plate; HSABC buffer with 2.5 mM DTT; with and without 500 nM TRE DNA duplex; room temperature, 10 min; excitation scan 450-650 nm, emission 700 nm; difference against the sum of the individual spectra; both purified. (BRET reads energy transfer from a luciferase to a nearby fluorophore.)

Amino acid sequences for entries named in this document (tags omitted). Residues count along the entry.
UniProt P01100, residues 137-200: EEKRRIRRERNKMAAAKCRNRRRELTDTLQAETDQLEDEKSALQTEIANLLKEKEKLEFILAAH
UniProt P05412, residues 252-315: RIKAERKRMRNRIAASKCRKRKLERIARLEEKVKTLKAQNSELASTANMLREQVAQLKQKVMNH

Experiment [2] deals with cJun bZIP fused to a fluorescent protein (cJun-mNeonGreen and cJun-mCherry) (human) (UniProt P05412). The description is as above.

These are yes or no findings as the source states them, for the method shown. Some entries that bind do so weakly or less than the wild type.

As to “cFos bZIP fused to a fluorescent protein (cFos-mNeonGreen and cFos-mCherry) (from UniProt P01100 137-200) (domain or fragment)”, the binding result in experiment [1] was “binds”.
For “cJun bZIP fused to a fluorescent protein (cJun-mNeonGreen and cJun-mCherry) (from UniProt P05412 252-315) (domain or fragment)”, the binding entry in experiment [2] is listed as “binds”.

B1: UvrA-mNG (protein, UniProt P0A698 1-940)
chain: MDKIEVRGARTHNLKNINLVIPRDKLIVVTGLSGSGKSSLAFDTLYAEGQRRYVESLSAYARQFLSLMEKPDVDHIEGLSPAISIEQKSTSHNPRSTVGTITEIHDYLRLLFARVGEPRCPDHDVPLAAQTVSQMVDNVLSQPEGKRLMLLAPIIKERKGEHTKTLENLASQGYIRARIDGEVCDLSDPPKLELQKKHTIEVVVDRFKVRDDLTQRLAESFETALELSGGTAVVADMDDPKAEELLFSANFACPICGYSMRELEPRLFSFNNPAGACPTCDGLGVQQYFDPDRVIQNPELSLAGGAIRGWDRRNFYYFQMLKSLADHYKFDVEAPWGSLSANVHKVVLYGSGKENIEFKYMNDRGDTSIRRHPFEGVLHNMERRYKETESSAVREELAKFISNRPCASCEGTRLRREARHVYVENTPLPAISDMSIGHAMEFFNNLKLAGQRAKIAEKILKEIGDRLKFLVNVGLNYLTLSRSAETLSGGEAQRIRLASQIGAGLVGVMYVLDEPSIGLHQRDNERLLGTLIHLRDLGNTVIVVEHDEDAIRAADHVIDIGPGAGVHGGEVVAEGPLEAIMAVPESLTGQYMSGKRKIEVPKKRVPANPEKVLKLTGARGNNLKDVTLTLPVGLFTCITGVSGSGKSTLINDTLFPIAQRQLNGATIAEPAPYRDIQGLEHFDKVIDIDQSPIGRTPRSNPATYTGVFTPVRELFAGVPESRARGYTPGRFSFNVRGGRCEACQGDGVIKVEMHFLPDIYVPCDQCKGKRYNRETLEIKYKGKTIHEVLDMTIEEAREFFDAVPALARKLQTLMDVGLTYIRLGQSATTLSGGEAQRVKLARELSKRGTGQTLYILDEPTTGLHFADIQQLLDVLHKLRDQGNTIVVIEHNLDVIKTADWIVDLGPEGGSGGGEILVSGTPETVAECEASHTARFLKPML
With B1, the binding entry in experiment [1] was “no binding”.

(Values after publication PMC9364023, “In vitro single molecule and bulk phase studies reveal the AP-1 transcription factor cFos binds to DNA without its partner cJun” (The Journal of Biological Chemistry, 2022).)
